Literature values as cited in US20260000632A1, “STRUCTURALLY MODIFIED FATTY ACIDS FOR IMPROVING GLYCEMIC CONTROL AND TREATING INFLAMMATORY BOWEL DISEASE” (Northsea Therapeutics B.V., priority 2018, published 2026).
At least one compound was matched to its structure with a doubt left.

Tested on: GLP-1
Conditions: cited from earlier work

CC/C=C\C/C=C\C/C=C\C/C=C\C/C=C\CCCC(=O)O [eicosapentaenoic acid]
Stimulation of intestinal GLP-1 production (delivery to either the stomach or jejunum (Morishita et al. 2008)): no effect | GLP-1 secretion (direct colonic delivery, rodents): able to induce GLP-1 secretion
